Test results from US20220307053A1, “REGULATABLE EXPRESSION SYSTEMS” (Novartis AG, priority 2019, published 2022).
Some of these results come from one statement about several compounds together.

Tested on: normal Human Fibroblast line (HD1994)
Experiment: RNA-Seq identification of non annotated splice-in exons in compound-treated fibroblasts
Format: cell-based
Conditions: final 10 candidate exons (Table 1); 24 hours; LMI070 100 nM and 5 uM, splice modulator 2 750 nM, splice modulator 3 5 uM

Row | SMILES | STAR aggregated junction counts & TopHat exon coverage
1 | CC1(C)CC(Oc2ccc(-c3ccc(-c4cn[nH]c4)cc3O)nn2)CC(C)(C)N1 [LMI070, 5-(1H-Pyrazol-4-yl)-2-(6-((2,2,6,6-tetramethylpiperidin-4-yl)oxy)pyridazin-3-yl)phenol] | > 60
2 | CN(c1ccc(-c2cc3cnccc3cc2O)nn1)C1CC(C)(C)NC(C)(C)C1 [splice modulator 2, 7-(6-(methyl(2,2,6,6-tetramethylpiperidin-4-yl)amino)pyridazin-3-yl)isoquinolin-6-ol] | > 60
